Some targets named below: SPIB (UniProt Q01892); ETV5 (UniProt P41161); ELF4 (UniProt Q99607).
What all share (test): DAPPL (digital affinity profiling via proximity ligation, sequencing)
Holding throughout (details): 10 mM Tris-HCl pH 7.5, 50 mM NaCl, 1 mM DTT, 4% glycerol, room temperature, 30 min; GST-TFs on glutathione beads, 16-mer random dsDNA library, 0.1% …; high values mean tight binding; double strand, one strand shown; scale: fold enrichment (6-mer frequency, TF over GST control)

By UniProt entry, the sequences of proteins in these tests, tags left out. Where a name states a change or a piece, a line headed by the entry shows the natural chain unless it says otherwise.
UniProt Q01892: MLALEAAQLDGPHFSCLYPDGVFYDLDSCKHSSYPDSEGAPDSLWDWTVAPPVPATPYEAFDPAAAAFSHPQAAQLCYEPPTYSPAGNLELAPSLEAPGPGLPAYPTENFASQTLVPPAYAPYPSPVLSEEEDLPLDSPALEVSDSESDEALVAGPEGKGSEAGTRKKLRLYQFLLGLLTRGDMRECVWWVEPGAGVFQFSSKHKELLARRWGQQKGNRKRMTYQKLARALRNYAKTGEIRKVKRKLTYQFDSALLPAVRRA
UniProt P41161: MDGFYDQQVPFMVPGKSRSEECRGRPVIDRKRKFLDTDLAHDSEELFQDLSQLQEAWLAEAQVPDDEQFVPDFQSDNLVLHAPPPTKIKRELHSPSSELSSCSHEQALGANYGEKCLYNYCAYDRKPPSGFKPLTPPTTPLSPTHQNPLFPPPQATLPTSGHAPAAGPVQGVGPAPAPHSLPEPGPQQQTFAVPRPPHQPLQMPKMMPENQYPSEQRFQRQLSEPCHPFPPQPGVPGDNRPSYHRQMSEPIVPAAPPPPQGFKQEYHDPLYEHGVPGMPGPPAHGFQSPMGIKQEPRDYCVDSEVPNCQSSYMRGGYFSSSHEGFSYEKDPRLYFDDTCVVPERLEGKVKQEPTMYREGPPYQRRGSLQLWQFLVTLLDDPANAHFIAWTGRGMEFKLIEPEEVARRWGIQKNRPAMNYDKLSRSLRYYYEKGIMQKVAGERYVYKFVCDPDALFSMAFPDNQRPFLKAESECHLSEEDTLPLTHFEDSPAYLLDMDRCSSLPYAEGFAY
UniProt Q99607: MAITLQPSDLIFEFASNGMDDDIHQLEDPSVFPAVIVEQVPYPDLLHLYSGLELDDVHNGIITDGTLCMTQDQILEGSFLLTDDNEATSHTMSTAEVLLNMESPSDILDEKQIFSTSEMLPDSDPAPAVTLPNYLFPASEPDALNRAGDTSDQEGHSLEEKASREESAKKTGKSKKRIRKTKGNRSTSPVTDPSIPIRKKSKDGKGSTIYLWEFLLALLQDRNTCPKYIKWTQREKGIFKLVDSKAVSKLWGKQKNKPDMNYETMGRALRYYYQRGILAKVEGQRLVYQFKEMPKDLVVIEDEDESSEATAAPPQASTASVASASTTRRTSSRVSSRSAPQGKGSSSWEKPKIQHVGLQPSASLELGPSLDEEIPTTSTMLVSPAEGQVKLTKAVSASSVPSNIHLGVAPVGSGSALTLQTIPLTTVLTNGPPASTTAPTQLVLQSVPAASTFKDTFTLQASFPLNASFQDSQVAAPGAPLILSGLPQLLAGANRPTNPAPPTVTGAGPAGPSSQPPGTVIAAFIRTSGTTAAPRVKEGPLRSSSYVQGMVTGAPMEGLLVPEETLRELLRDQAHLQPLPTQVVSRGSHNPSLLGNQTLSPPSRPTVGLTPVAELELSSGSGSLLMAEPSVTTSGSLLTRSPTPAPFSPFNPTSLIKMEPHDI

The next test concerns the target T1, FLI1 (UniProt Q01543).
T1 sequence: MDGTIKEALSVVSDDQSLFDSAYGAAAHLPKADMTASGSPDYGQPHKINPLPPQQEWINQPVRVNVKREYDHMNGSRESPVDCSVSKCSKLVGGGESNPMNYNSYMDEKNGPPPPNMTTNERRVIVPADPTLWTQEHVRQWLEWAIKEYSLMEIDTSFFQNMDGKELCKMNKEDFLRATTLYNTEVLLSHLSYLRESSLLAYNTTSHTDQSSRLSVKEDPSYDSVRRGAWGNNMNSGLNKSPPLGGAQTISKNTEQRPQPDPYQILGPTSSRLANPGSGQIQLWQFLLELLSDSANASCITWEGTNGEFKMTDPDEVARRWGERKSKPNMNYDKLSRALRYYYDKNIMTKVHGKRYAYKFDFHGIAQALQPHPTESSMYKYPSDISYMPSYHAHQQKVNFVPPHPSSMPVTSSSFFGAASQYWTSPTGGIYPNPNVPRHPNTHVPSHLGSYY

The target in a further test is T2, EHF (UniProt Q9NZC4).
T2 sequence: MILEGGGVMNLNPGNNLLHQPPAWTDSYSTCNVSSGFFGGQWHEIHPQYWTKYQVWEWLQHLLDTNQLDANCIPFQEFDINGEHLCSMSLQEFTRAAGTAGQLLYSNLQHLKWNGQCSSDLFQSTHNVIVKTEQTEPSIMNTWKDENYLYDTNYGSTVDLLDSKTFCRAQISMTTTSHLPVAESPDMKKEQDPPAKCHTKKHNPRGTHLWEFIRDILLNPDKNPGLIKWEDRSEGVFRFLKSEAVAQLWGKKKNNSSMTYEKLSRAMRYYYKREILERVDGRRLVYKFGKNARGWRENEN

The next test has as its target T3, ETV2 (UniProt O00321).
T3 sequence: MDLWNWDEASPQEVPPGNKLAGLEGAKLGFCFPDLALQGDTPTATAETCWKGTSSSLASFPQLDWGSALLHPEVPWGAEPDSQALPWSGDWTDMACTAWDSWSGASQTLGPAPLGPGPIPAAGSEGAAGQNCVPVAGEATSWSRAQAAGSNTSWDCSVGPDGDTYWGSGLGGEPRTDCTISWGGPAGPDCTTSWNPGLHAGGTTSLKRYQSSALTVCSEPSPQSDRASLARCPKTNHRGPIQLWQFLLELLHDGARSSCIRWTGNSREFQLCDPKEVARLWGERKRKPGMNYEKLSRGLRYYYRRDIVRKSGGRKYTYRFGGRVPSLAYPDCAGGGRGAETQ

The next test deals with T4, ETV3L (UniProt Q6ZN32).
T4 sequence: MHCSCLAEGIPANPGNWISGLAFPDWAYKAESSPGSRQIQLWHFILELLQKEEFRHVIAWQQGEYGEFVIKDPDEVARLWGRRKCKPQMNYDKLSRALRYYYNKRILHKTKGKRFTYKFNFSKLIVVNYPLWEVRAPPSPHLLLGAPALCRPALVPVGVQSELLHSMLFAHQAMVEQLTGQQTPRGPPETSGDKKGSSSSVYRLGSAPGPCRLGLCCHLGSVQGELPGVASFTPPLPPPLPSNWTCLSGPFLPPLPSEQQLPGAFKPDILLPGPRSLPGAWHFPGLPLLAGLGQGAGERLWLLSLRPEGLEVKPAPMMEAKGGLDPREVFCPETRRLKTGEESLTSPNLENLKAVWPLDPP

The list shows a part of the results, in another mix than the full data. At the low end of the ranking the order means little.

In the case of GGTCAT, the binding signal in the test with FLI1 came to 0.785; with EHF, 0.792; in the test with SPIB, 0.927; in the test with ETV5, 0.818; with ELF4 it was 0.86; with ETV2 it was 0.793. The binding signal in the test with ETV3L was determined as 0.907.

Turning to AGCCCG, the binding signal was determined as 0.956 with FLI1; 0.822 with EHF; 0.869 with SPIB; 0.872 with ETV5; 0.873 in the test with ELF4; 0.754 in the test with ETV2. The binding signal with ETV3L stood at 0.825.

On to AGGCCT, for which the binding signal was found to be 0.886 with FLI1; 0.947 in the test with EHF; 0.941 with SPIB; 0.943 with ETV5; 0.92 with ELF4; 1.01 with ETV2. This sequence also yielded a binding signal with ETV3L of 0.956.

On to GACAGG, for which the binding signal with FLI1 was determined as 0.552; with EHF, 0.574; in the test with SPIB, 0.556; with ETV5, 0.55; with ELF4, 0.593; with ETV2, 0.494. This sequence showed a binding signal with ETV3L of 0.571.

Regarding AACGGG, the binding signal with FLI1 is 0.705; with EHF it was 0.731; with SPIB, 0.699; in the test with ETV5, 0.707; with ELF4, 0.668; with ETV2, 0.805. In the test with ETV3L, the binding signal was 0.724.

Turning to ACCAGG, the binding signal with FLI1 was determined as 0.791; with EHF, 0.885; in the test with SPIB, 0.811; in the test with ETV5, 0.783; with ELF4, 0.754; with ETV2 it was 0.808. In the test with ETV3L, the binding signal turned out to be 0.762.

Consider GACAAG, for which the binding signal with FLI1 was 0.734; in the test with EHF, 0.795; with SPIB, 0.708; with ETV5, 0.735; with ELF4, 0.729; with ETV2, 0.716. For the same sequence, in the test with ETV3L, the binding signal is 0.725.

CGTCAG: the binding signal with FLI1 was determined as 0.827; in the test with EHF, 0.807; with SPIB, 0.779; with ETV5, 0.781; with ELF4, 0.855; with ETV2, 0.829. In the test with ETV3L, this sequence yielded a binding signal of 0.831.

On to GACTAG, for which the binding signal with FLI1 worked out at 0.709; with EHF, 0.737; with SPIB, 0.735; in the test with ETV5, 0.692; with ELF4, 0.77; with ETV2, 0.83. The sequence further yielded a binding signal with ETV3L of 0.732.

ACAGGT: the binding signal came out at 0.699 with FLI1; 0.695 with EHF; 0.692 in the test with SPIB; 0.837 in the test with ETV5; 0.754 with ELF4; 0.815 with ETV2. The sequence further came in with a binding signal with ETV3L of 0.773.

In the case of GGGAGC, the binding signal with FLI1 was 0.38; in the test with EHF, 0.376; with SPIB, 0.384; with ETV5, 0.405; with ELF4 it was 0.377; with ETV2 it was 0.371. In addition, in the test with ETV3L, the binding signal was found to be 0.403.

In the case of GACAAT, the binding signal with FLI1 was 0.883; with EHF, 0.872; with SPIB it was 0.858; with ETV5, 0.909; with ELF4, 0.905; with ETV2, 0.915. In addition, in the test with ETV3L, the binding signal is 0.949.

For the sequence CAGCGG, the binding signal with FLI1 was 0.445; with EHF it was 0.449; with SPIB, 0.458; in the test with ETV5, 0.435; with ELF4, 0.481; in the test with ETV2, 0.506. In the test with ETV3L, this sequence displayed a binding signal of 0.464.

Take GAGCAG: the binding signal amounted to 0.639 in the test with FLI1; 0.602 with EHF; 0.655 in the test with SPIB; 0.602 with ETV5; 0.639 with ELF4; 0.636 in the test with ETV2. Besides, in the test with ETV3L, the binding signal came to 0.6.

CGAGGG: the binding signal was 0.711 in the test with FLI1; 0.651 in the test with EHF; 0.72 with SPIB; 0.662 in the test with ETV5; 0.693 with ELF4; 0.7 with ETV2. Further, the binding signal with ETV3L was 0.673.

Regarding AAGAGA, the binding signal with FLI1 amounted to 0.798; with EHF, 0.887; with SPIB, 0.793; in the test with ETV5, 0.841; with ELF4 it was 0.858; with ETV2 it was 0.798. In the test with ETV3L, this sequence displayed a binding signal of 0.872.

Consider GAGGTG, for which the binding signal was 0.489 with FLI1; 0.447 with EHF; 0.508 with SPIB; 0.546 with ETV5; 0.472 with ELF4; 0.502 with ETV2. Moreover, the binding signal with ETV3L was determined as 0.468.

AGCGTG: the binding signal with FLI1 amounted to 0.417; with EHF, 0.355; with SPIB, 0.392; with ETV5, 0.376; in the test with ELF4 it was 0.363; in the test with ETV2, 0.366. In the test with ETV3L, this sequence yielded a binding signal of 0.376.

As for GACGTA, the binding signal worked out at 0.783 with FLI1; 0.699 in the test with EHF; 0.642 with SPIB; 0.731 with ETV5; 0.761 with ELF4; 0.841 with ETV2. Also, the binding signal with ETV3L worked out at 0.684.

As to GTTGGG, the binding signal amounted to 0.751 with FLI1; 0.664 with EHF; 0.605 in the test with SPIB; 0.687 with ETV5; 0.67 in the test with ELF4; 0.618 in the test with ETV2. The binding signal in the test with ETV3L came out at 0.702.

Regarding CCATGA, the binding signal with FLI1 was 0.8; in the test with EHF, 0.865; in the test with SPIB, 0.883; in the test with ETV5 it was 0.862; with ELF4 it was 0.877; with ETV2, 0.844. In addition, the binding signal with ETV3L was 0.881.

In the case of GGCCGC, the binding signal in the test with FLI1 came out at 0.808; with EHF, 0.736; in the test with SPIB it was 0.855; with ETV5, 0.831; in the test with ELF4, 0.847; with ETV2 it was 0.758. This sequence had a binding signal with ETV3L of 0.785.

Take GAGATG: the binding signal in the test with FLI1 amounted to 0.655; in the test with EHF, 0.657; with SPIB, 0.658; in the test with ETV5, 0.743; with ELF4, 0.657; in the test with ETV2 it was 0.729. In the test with ETV3L, the binding signal turned out to be 0.649.

Take GGATCG: the binding signal with FLI1 was 0.647; in the test with EHF, 0.611; with SPIB, 0.542; in the test with ETV5, 0.614; with ELF4, 0.639; with ETV2, 0.506. The binding signal with ETV3L was 0.627.

As for TGAGTA, the binding signal with FLI1 is 0.436; with EHF it was 0.486; with SPIB, 0.436; in the test with ETV5, 0.454; with ELF4, 0.414; with ETV2 it was 0.422. Besides, the binding signal with ETV3L was determined as 0.408.

Take GGTCAG: the binding signal with FLI1 was 0.593; with EHF, 0.515; with SPIB, 0.624; in the test with ETV5, 0.532; with ELF4 it was 0.568; with ETV2 it was 0.565. The same sequence showed a binding signal in the test with ETV3L of 0.57.

As to CAGTTT, the binding signal with FLI1 came out at 0.945; with EHF it was 0.862; in the test with SPIB it was 1.03; in the test with ETV5, 0.913; with ELF4, 0.915; with ETV2, 0.962. This sequence had a binding signal in the test with ETV3L of 0.939.

GAGATA: the binding signal with FLI1 came out at 0.656; in the test with EHF, 0.651; in the test with SPIB it was 0.617; in the test with ETV5, 0.655; with ELF4, 0.665; with ETV2, 0.638. This sequence also showed a binding signal in the test with ETV3L of 0.669.

Consider GTCTGT, for which the binding signal with FLI1 was 0.935; in the test with EHF, 0.906; in the test with SPIB, 0.938; with ETV5, 0.887; with ELF4, 0.932; with ETV2, 0.858. In the test with ETV3L, this sequence had a binding signal of 0.887.

For the sequence CCGTGT, the binding signal with FLI1 worked out at 0.548; with EHF it was 0.547; with SPIB, 0.521; in the test with ETV5, 0.537; with ELF4, 0.528; with ETV2 it was 0.531. Besides, the binding signal in the test with ETV3L worked out at 0.475.

The values above are taken from publication PMC7862700.
